{"source": "PubChem BioAssay AID504784 | Drosophila RNAi Screening Center – 2011", "purpose": "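Genome-wide knock-down for genes giving too much or too little stored lipid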 (primary screen)", "system": "Drosophila Kc167 embryonic cells", "knock-down reagent": "long dsRNA against Drosophila genes, about 250 ng dsRNA per well", "timing": "4 days", "treatment": "cells fed 400 µM oleic acid bound to BSA", "read-out": "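Cells imaged and segmented; ratio of lipid droplet area to nuclear area, log-transformed, then normalised as a B-score over the screen; higher means more stored lipid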", "reading the numbers": "droplet/nuclear area B-score: higher = more stored lipid (overstorage)", "note": "The deposit covers about 17,000 reagents; shown is a random part of those with a known target gene and a result. 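Each column is one replicate's B-score; the combined score over replicates was not deposited, so single values may mislead.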 Further read-outs or replicates are left out here."}
{"gene knocked down":"GM130 (Golgi matrix protein 130 kD)","dsRNA":"DRSC04617","droplet/nuclear area B-score, replicate 1":0.871}
{"gene knocked down":"CG14160","dsRNA":"DRSC10161","droplet/nuclear area B-score, replicate 1":1.2}
{"gene knocked down":"CG34355","dsRNA":"DRSC13639","droplet/nuclear area B-score, replicate 1":0}
{"gene knocked down":"CG34355","dsRNA":"DRSC14520","droplet/nuclear area B-score, replicate 1":-0.116}
{"gene knocked down":"CG34355","dsRNA":"DRSC14668","droplet/nuclear area B-score, replicate 1":-0.918}
{"gene knocked down":"CG34355","dsRNA":"DRSC21687","droplet/nuclear area B-score, replicate 1":0.116}
{"gene knocked down":"ranshi","dsRNA":"DRSC16564","droplet/nuclear area B-score, replicate 1":0.778}
{"gene knocked down":"Ir56d (Ionotropic receptor 56d)","dsRNA":"DRSC06590","droplet/nuclear area B-score, replicate 1":2.01}
{"gene knocked down":"mam (mastermind)","dsRNA":"DRSC05468","droplet/nuclear area B-score, replicate 1":-2.14}
{"gene knocked down":"mam (mastermind)","dsRNA":"DRSC07648","droplet/nuclear area B-score, replicate 1":1.6}
{"gene knocked down":"mam (mastermind)","dsRNA":"DRSC22971","droplet/nuclear area B-score, replicate 1":-0.022}
{"gene knocked down":"Elo68alpha (Elongase 68alpha)","dsRNA":"DRSC22725","droplet/nuclear area B-score, replicate 1":0.0253}
{"gene knocked down":"peo (pendolino)","dsRNA":"DRSC05995","droplet/nuclear area B-score, replicate 1":-2.76}
{"gene knocked down":"Gpdh2 (Glycerol-3-phosphate dehydrogenase 2)","dsRNA":"DRSC04346","droplet/nuclear area B-score, replicate 1":-0.0173}
{"gene knocked down":"Vps16A (Vacuolar protein sorting 16A)","dsRNA":"DRSC16422","droplet/nuclear area B-score, replicate 1":-1.71}
{"gene knocked down":"Jhbp7 (Juvenile hormone binding protein 7)","dsRNA":"DRSC14408","droplet/nuclear area B-score, replicate 1":-2.45}
{"gene knocked down":"Mms19","dsRNA":"DRSC12188","droplet/nuclear area B-score, replicate 1":2.16}
{"gene knocked down":"Cp38 (Chorion protein 38)","dsRNA":"DRSC18453","droplet/nuclear area B-score, replicate 1":0.395}
{"gene knocked down":"RpS23 (Ribosomal protein S23)","dsRNA":"DRSC07169","droplet/nuclear area B-score, replicate 1":4.46}
{"gene knocked down":"SP1173","dsRNA":"DRSC11277","droplet/nuclear area B-score, replicate 1":0.553}
{"gene knocked down":"mRpS14 (mitochondrial ribosomal protein S14)","dsRNA":"DRSC19444","droplet/nuclear area B-score, replicate 1":2.31}
{"gene knocked down":"unc-13","dsRNA":"DRSC17192","droplet/nuclear area B-score, replicate 1":-1.75}
{"gene knocked down":"unc-13","dsRNA":"DRSC17193","droplet/nuclear area B-score, replicate 1":-1}
{"gene knocked down":"unc-13","dsRNA":"DRSC17223","droplet/nuclear area B-score, replicate 1":2.23}
{"gene knocked down":"Pc (Polycomb)","dsRNA":"DRSC11873","droplet/nuclear area B-score, replicate 1":-1.52}
{"gene knocked down":"nonA-l (nonA-like)","dsRNA":"DRSC17017","droplet/nuclear area B-score, replicate 1":0.11}
{"gene knocked down":"CysRS-m (Cysteinyl-tRNA synthetase, mitochondrial)","dsRNA":"DRSC07129","droplet/nuclear area B-score, replicate 1":-0.807}
{"gene knocked down":"bero (belly roll)","dsRNA":"DRSC03211","droplet/nuclear area B-score, replicate 1":-0.516}
{"gene knocked down":"Rack1 (Receptor of activated protein kinase C 1)","dsRNA":"DRSC03405","droplet/nuclear area B-score, replicate 1":0.821}
{"gene knocked down":"mxt (mextli)","dsRNA":"DRSC00551","droplet/nuclear area B-score, replicate 1":0.75}
{"gene knocked down":"svp (seven up)","dsRNA":"DRSC12899","droplet/nuclear area B-score, replicate 1":0.547}
{"gene knocked down":"svp (seven up)","dsRNA":"DRSC15311","droplet/nuclear area B-score, replicate 1":0.00961}
{"gene knocked down":"svp (seven up)","dsRNA":"DRSC17075","droplet/nuclear area B-score, replicate 1":-0.196}
{"gene knocked down":"CG33095","dsRNA":"DRSC14441","droplet/nuclear area B-score, replicate 1":-0.735}
{"gene knocked down":"MrgBP (MRG/MORF4L binding protein)","dsRNA":"DRSC06417","droplet/nuclear area B-score, replicate 1":2.79}
{"gene knocked down":"CG43894","dsRNA":"DRSC10123","droplet/nuclear area B-score, replicate 1":-1.53}
{"gene knocked down":"CG13494","dsRNA":"DRSC04139","droplet/nuclear area B-score, replicate 1":0.33}
{"gene knocked down":"CG32687","dsRNA":"DRSC18210","droplet/nuclear area B-score, replicate 1":0.664}
{"gene knocked down":"CG32687","dsRNA":"DRSC18237","droplet/nuclear area B-score, replicate 1":-0.516}
{"gene knocked down":"Kal1 (Kallmann syndrome 1)","dsRNA":"DRSC15983","droplet/nuclear area B-score, replicate 1":-0.578}

2 successive records already listed, quoted:
{"gene knocked down":"CG13494","dsRNA":"DRSC04139","droplet/nuclear area B-score, replicate 1":0.33}
{"gene knocked down":"CG32687","dsRNA":"DRSC18210","droplet/nuclear area B-score, replicate 1":0.664}
